Results are given in words; binding and its absence hold for the method and conditions named. Binding seen in cells or lysates may run through a third protein. A yes stands for co-enrichment or nearness to the bait. Other partners may have been found.
Molecular target: T1, Myocilin (MYOC) (mouse (endogenous in C2C12)) (UniProt O70624)
T1 sequence: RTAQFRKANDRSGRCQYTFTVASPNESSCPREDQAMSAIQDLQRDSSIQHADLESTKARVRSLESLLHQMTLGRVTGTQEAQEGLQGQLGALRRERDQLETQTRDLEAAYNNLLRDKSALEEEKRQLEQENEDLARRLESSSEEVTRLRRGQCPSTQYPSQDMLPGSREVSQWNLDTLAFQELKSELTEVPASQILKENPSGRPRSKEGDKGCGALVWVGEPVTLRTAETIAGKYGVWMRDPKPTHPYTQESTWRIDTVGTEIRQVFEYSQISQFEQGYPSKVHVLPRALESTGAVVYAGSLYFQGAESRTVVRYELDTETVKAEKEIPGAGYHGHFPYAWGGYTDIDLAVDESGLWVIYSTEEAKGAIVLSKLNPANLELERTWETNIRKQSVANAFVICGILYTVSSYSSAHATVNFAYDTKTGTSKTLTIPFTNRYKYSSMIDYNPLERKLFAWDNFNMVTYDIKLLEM
Assay: affinity purification with mass spectrometry; lysate (RIPA) of C2C12 cells on day 7 of differentiation; immunoprecipitation with anti-MYOC antibody overnight at 4 °C, protein A + G agarose beads; Coomassie-stained specific bands sequenced by mass spectrometry; rabbit IgG as control

By UniProt entry, the sequences of proteins in these tests, tags left out.
UniProt P49817: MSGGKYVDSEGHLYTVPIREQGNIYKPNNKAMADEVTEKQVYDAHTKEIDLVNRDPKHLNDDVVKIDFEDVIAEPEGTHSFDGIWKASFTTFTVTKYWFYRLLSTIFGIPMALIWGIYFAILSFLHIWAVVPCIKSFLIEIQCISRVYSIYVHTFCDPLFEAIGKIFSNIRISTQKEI

## Caveolin-1 (CAV1) (from UniProt P49817 1-178)
  binding: binds
